Results: publication PMC4786873 (Nature Communications, 2016)
Strings that start with PEPTIDE1 are HELM notation: dots part the residues, brackets hold end groups and non-standard residues.

How the values were obtained:
[1] = general procedure: Fmoc solid-phase peptide synthesis; Sieber amide resin (0.69 mmol/g) for linear peptides 4-7; 2-chlorotrityl polystyrene resin (0.94 mmol/g) for 8; DIC/OxymaPure (DIC/HOBt for Arg; PyBOP/HOBt/DIPEA for amino acid 3 in peptide 8); settings: for final HPLC purity: whole synthesis
[2] = general procedure: Fmoc solid-phase peptide synthesis; 2-chlorotrityl polystyrene resin; DIC/OxymaPure (DIC/HOBt for Arg; PyBOP/HOBt/DIPEA for amino acid 3 in peptide 8); settings: whole synthesis

PEPTIDE1{A.A.A.[Trp(C2-BODIPY)].F.W.[am]}$$$$V2.0
final HPLC purity ([1]; HPLC): 96% purity

PEPTIDE1{R.K.K.W.F.W.G}$PEPTIDE1,PEPTIDE1,1:R1-7:R2$$$V2.0
final HPLC purity ([1]; HPLC): 98% purity
crude yield [2]: 72%

PEPTIDE1{R.K.K.W.F.W.[am]}$$$$V2.0
final HPLC purity ([1]; HPLC): 95% purity

PEPTIDE1{R.K.K.W.F.[Trp(C2-BODIPY)].[am]}$$$$V2.0
final HPLC purity ([1]; HPLC): 90% purity

PEPTIDE1{R.K.K.[Trp(C2-BODIPY)].A.A.[am]}$$$$V2.0
final HPLC purity ([1]; HPLC): 99% purity

PEPTIDE1{R.K.K.[Trp(C2-BODIPY)].F.W.G}$PEPTIDE1,PEPTIDE1,1:R1-7:R2$$$V2.0
cyclisation yield ([1]; cyclisation step, on protected linear peptide): 87% yield
step yield ([1]; late stage modification step): around 60%
purity (crude or final not stated) ([1]; late stage modification step, HPLC): over 90%
final HPLC purity ([1]; HPLC): 98% purity

PEPTIDE1{R.K.K.[Trp(C2-BODIPY)].F.W.[am]}$$$$V2.0
final HPLC purity ([1]; HPLC): 90% purity

PEPTIDE1{R.K.K.[Trp(C2-BODIPY)].F.[Trp(C2-BODIPY)].[am]}$$$$V2.0
final HPLC purity ([1]; HPLC): 91% purity
